Drawing on patent US20090074747A1 (IRM, published 2009), this text covers binding for one molecule.

Results are given in words; binding and its absence hold for the method and conditions named. Binding can be weak; no strength is given.

For the experiment, the target named is cynomolgus TSLPR (cynomolgus). The experiment is described as follows: ELISA, plate coated with cTSLPR. (In general: In an ELISA, binding on a coated surface is turned into a signal by an enzyme label.)

B1: NV164-1-IgG1 (antibody, V domains shown)
VH: QVQLVQSGSELKKPGASVKVSCKASGYTFTSYGMSWVRQAPGQGLEWMGWVNTNTGNPRYAQGFTGRFVFSLDTSVSTAYLQISSLKAEDTAVYYCAREGFIRTVVGAAGRFVYWGQGTLVTVSS
VL: DIQMTQSPSSLSASVGDRVTITCRASQDIHTRLAWYQQKPGKAPKLLIYWASTLQSGVPSRFSGSGSGTDFTLTISSLQPEDFATYYCQQYSAYPTFGQGTKLEIKG
As for B1, the binding result is given as “binds”.
